{"source": "the supplement of paper PMC9135407", "system": "primary human hepatic stellate cells (donor 1)", "assay": "percent Bodipy-positive cells; higher = more lipid droplet accumulation", "conditions": "48 h", "experimental": "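Primary lipid accumulation screen in primary human hepatic stellate cell myofibroblasts (donor 1, passage 8) in 384-well plates. 100 nL of library compound was pin-transferred into 30 µL medium in duplicate, and cells were treated for 48 h. The 'Scaled' score combines distance from plate baseline, toxicity and reproducibility penalties, and is normalised to nortriptyline (positive) and DMSO (negative) controls on each plate. A hit is defined as scaled >0.85 or among the top 3 wells per plate.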", "key": {"[1]": {"conditions": "library stock concentration: 10 mM"}, "[2]": {"conditions": "library stock concentration: 1 mM"}, "[3]": {"conditions": "library stock concentration: 3.33 mM"}}, "note": "Values joined by “and” are separate entries in the source; they are usually repeats but may differ in a detail not shown here. Equal entries are not always repeated. Structures can show the parent of a compound that is named as a salt. ± gives the standard deviation of the averaged measurements. This is one part of the list. Plates or batches differ in their baseline, so values are only roughly comparable.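 Primary human stellate myofibroblasts activated in culture; inactivation shown by regained lipid droplets. Readout: fraction of Hoechst-counted cells exceeding a per-plate Bodipy threshold, duplicate wells, each plate with DMSO negative and nortriptyline positive controls. Hits: control-normalized score beyond the plate's top-tenth-percentile nortriptyline wells, or among its three best wells. Final well concentrations unstated.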", "data": [{"smiles": "CC(C)[C@H](CO)Nc1nc(Nc2ccc(C(=O)O)c(Cl)c2)c2ncn(C(C)C)c2n1", "note": "[Purvalanol B (NG95) (2 mM)]", "values": [{"measurement": "percent Bodipy-positive cells", "setting": "library stock concentration: 2 mM", "result": "18 ± 0.57", "unit": "%"}]}, {"smiles": "CC(C)[C@H](CO)Nc1nc(Nc2ccc(C(=O)O)c(Cl)c2)c2ncn(C(C)C)c2n1", "note": "[Purvalanol B (NG95) (0.4 mM)]", "values": [{"measurement": "percent Bodipy-positive cells", "setting": "library stock concentration: 400 uM", "result": "20.9 ± 2.7", "unit": "%"}]}, {"smiles": "CC(C)[C@H](CO)Nc1nc(Nc2ccc(C(=O)O)c(Cl)c2)c2ncn(C(C)C)c2n1", "note": "[Purvalanol B]", "values": [{"measurement": "percent Bodipy-positive cells", "setting": "[1]", "result": "6.6 ± 1.6", "unit": "%"}]}, {"smiles": "CC(C)[C@H](CO)Nc1nc(Nc2ccc(C(=O)O)c(Cl)c2)c2ncn(C(C)C)c2n1", "note": "[Purvalanol B (NG95) (10 mM)]", "values": [{"measurement": "percent Bodipy-positive cells", "setting": "[1]", "result": "18.4 ± 6.5", "unit": "%"}]}, {"smiles": "CCCCC/C=C\\C=C\\CCCCCCCCC(=O)O", "note": "[10(E),12(Z)-Conjugated Linoleic Acid]", "values": [{"measurement": "percent Bodipy-positive cells", "setting": "[2]", "result": "15.5 ± 2.2", "unit": "%"}]}, {"smiles": "COc1cc2ncnc(Nc3ccc(F)c(Cl)c3)c2cc1OCCCN1CCOCC1", "note": "[Gefitinib (ZD1839)]", "values": [{"measurement": "percent Bodipy-positive cells", "setting": "[1]", "result": "84.4 ± 3.9", "unit": "%"}]}, {"smiles": "Cn1cc(C2=C(c3ccc(Cl)cc3Cl)C(=O)NC2=O)c2ccccc21", "values": [{"measurement": "percent Bodipy-positive cells", "setting": "[1]", "result": "75.1 ± 1.5", "unit": "%"}]}, {"smiles": "CCCCCCCCCCCCCCCCCCCCCCCC(=O)NCCS(=O)(=O)O", "note": "[N-Lignoceroyl Taurine]", "values": [{"measurement": "percent Bodipy-positive cells", "setting": "[2]", "result": "7.77 ± 1.1", "unit": "%"}]}, {"smiles": "CC(C)OC(=O)OCOP(=O)(CO[C@H](C)Cn1cnc2c(N)ncnc21)OCOC(=O)OC(C)C", "note": "[Tenofovir Disoproxil Fumarate]", "values": [{"measurement": "percent Bodipy-positive cells", "setting": "[3]", "result": "7.74 ± 4.3", "unit": "%"}, {"measurement": "percent Bodipy-positive cells", "setting": "[1]", "result": "25.4 ± 3.4", "unit": "%"}]}, {"smiles": "CN(C)CCOc1cc(-c2cn[nH]c2)ccc1NC(=O)C1COc2ccccc2O1", "note": "(stereo not drawn)", "values": [{"measurement": "percent Bodipy-positive cells", "setting": "[1]", "result": "85.8 ± 5.5", "unit": "%"}]}, {"smiles": "Cl.O=C(NCCCCN1CCN(c2cccc(Cl)c2Cl)CC1)c1ccc2c(c1)Cc1ccccc1-2", "values": [{"measurement": "percent Bodipy-positive cells", "setting": "[1]", "result": "59.8 ± 4.9", "unit": "%"}]}, {"smiles": "Nc1cc(Cl)c(NC2=NCCN2)c(Cl)c1", "note": "[p-Aminoclonidine hydrochloride]", "values": [{"measurement": "percent Bodipy-positive cells", "setting": "[1]", "result": "45.8 ± 13", "unit": "%"}]}, {"smiles": "CC[C@@H](C)Nc1cc(C(=O)N[C@H]2C[C@H]3CC[C@@H](C2)N3c2ccc(C(=O)C3CC3)cn2)c(C)cc1C(N)=O", "values": [{"measurement": "percent Bodipy-positive cells", "setting": "[3]", "result": "83.4 ± 3.2", "unit": "%"}]}, {"smiles": "O=C(O)c1ccccc1C(=O)Nc1ccc(S(=O)(=O)Nc2nccs2)cc1", "note": "[Phthalylsulfathiazole]", "values": [{"measurement": "percent Bodipy-positive cells", "result": "9.95 ± 7.4", "unit": "%"}, {"measurement": "percent Bodipy-positive cells", "setting": "library stock concentration: 5 mM", "result": "15.82 ± 0.028", "unit": "%"}, {"measurement": "percent Bodipy-positive cells", "setting": "[1]", "result": "24 ± 8.7", "unit": "%"}]}, {"smiles": "C[N+](C)(C)CC(=O)O", "note": "[Betaine hydrochloride]", "values": [{"measurement": "percent Bodipy-positive cells", "setting": "[1]", "result": "56.7% and 38.2%"}, {"measurement": "percent Bodipy-positive cells", "setting": "library stock concentration: 13 mM", "result": "22.8 ± 3.3", "unit": "%"}]}, {"smiles": "CC(C)[C@H](NC(=O)CNC(=O)OC(C)(C)C)C(=O)N[C@H](C=O)C(C)C", "values": [{"measurement": "percent Bodipy-positive cells", "setting": "library stock concentration: 14 mM", "result": "21.2 ± 7.8", "unit": "%"}]}, {"smiles": "CCS(=O)(=O)N1CCC[C@@H]2CN3CCc4cc(OC)ccc4[C@@H]3C[C@@H]21", "values": [{"measurement": "percent Bodipy-positive cells", "setting": "[1]", "result": "7.36 ± 1.4", "unit": "%"}]}, {"smiles": "Cc1cc(C)c(Nc2ccnc(Nc3ccc(C#N)cc3)n2)c(C)c1", "note": "[Dapivirine (TMC120)]", "values": [{"measurement": "percent Bodipy-positive cells", "setting": "[1]", "result": "89 ± 2.7", "unit": "%"}]}, {"smiles": "CCCCC/C=C\\C/C=C\\CCCC/C=C\\CCCC(=O)O", "note": "[5(Z),11(Z),14(Z)-Eicosatrienoic Acid]", "values": [{"measurement": "percent Bodipy-positive cells", "setting": "[2]", "result": "10.6 ± 2.6", "unit": "%"}]}]}
